# Like-named read-outs stand apart in the source and are kept apart here. These are yes or no findings as the source states them, for the method shown. In cells and extracts the contact can be indirect. These calls come from enrichment with a bait or labelling near it, and not all partners need be listed. For some of these results: No binding means not detected with the bait. For some of these results: Tags and fused reporters may be left off the sequences shown.
# By UniProt entry, the sequences of proteins in these tests, tags left out.
# UniProt S8EZL1: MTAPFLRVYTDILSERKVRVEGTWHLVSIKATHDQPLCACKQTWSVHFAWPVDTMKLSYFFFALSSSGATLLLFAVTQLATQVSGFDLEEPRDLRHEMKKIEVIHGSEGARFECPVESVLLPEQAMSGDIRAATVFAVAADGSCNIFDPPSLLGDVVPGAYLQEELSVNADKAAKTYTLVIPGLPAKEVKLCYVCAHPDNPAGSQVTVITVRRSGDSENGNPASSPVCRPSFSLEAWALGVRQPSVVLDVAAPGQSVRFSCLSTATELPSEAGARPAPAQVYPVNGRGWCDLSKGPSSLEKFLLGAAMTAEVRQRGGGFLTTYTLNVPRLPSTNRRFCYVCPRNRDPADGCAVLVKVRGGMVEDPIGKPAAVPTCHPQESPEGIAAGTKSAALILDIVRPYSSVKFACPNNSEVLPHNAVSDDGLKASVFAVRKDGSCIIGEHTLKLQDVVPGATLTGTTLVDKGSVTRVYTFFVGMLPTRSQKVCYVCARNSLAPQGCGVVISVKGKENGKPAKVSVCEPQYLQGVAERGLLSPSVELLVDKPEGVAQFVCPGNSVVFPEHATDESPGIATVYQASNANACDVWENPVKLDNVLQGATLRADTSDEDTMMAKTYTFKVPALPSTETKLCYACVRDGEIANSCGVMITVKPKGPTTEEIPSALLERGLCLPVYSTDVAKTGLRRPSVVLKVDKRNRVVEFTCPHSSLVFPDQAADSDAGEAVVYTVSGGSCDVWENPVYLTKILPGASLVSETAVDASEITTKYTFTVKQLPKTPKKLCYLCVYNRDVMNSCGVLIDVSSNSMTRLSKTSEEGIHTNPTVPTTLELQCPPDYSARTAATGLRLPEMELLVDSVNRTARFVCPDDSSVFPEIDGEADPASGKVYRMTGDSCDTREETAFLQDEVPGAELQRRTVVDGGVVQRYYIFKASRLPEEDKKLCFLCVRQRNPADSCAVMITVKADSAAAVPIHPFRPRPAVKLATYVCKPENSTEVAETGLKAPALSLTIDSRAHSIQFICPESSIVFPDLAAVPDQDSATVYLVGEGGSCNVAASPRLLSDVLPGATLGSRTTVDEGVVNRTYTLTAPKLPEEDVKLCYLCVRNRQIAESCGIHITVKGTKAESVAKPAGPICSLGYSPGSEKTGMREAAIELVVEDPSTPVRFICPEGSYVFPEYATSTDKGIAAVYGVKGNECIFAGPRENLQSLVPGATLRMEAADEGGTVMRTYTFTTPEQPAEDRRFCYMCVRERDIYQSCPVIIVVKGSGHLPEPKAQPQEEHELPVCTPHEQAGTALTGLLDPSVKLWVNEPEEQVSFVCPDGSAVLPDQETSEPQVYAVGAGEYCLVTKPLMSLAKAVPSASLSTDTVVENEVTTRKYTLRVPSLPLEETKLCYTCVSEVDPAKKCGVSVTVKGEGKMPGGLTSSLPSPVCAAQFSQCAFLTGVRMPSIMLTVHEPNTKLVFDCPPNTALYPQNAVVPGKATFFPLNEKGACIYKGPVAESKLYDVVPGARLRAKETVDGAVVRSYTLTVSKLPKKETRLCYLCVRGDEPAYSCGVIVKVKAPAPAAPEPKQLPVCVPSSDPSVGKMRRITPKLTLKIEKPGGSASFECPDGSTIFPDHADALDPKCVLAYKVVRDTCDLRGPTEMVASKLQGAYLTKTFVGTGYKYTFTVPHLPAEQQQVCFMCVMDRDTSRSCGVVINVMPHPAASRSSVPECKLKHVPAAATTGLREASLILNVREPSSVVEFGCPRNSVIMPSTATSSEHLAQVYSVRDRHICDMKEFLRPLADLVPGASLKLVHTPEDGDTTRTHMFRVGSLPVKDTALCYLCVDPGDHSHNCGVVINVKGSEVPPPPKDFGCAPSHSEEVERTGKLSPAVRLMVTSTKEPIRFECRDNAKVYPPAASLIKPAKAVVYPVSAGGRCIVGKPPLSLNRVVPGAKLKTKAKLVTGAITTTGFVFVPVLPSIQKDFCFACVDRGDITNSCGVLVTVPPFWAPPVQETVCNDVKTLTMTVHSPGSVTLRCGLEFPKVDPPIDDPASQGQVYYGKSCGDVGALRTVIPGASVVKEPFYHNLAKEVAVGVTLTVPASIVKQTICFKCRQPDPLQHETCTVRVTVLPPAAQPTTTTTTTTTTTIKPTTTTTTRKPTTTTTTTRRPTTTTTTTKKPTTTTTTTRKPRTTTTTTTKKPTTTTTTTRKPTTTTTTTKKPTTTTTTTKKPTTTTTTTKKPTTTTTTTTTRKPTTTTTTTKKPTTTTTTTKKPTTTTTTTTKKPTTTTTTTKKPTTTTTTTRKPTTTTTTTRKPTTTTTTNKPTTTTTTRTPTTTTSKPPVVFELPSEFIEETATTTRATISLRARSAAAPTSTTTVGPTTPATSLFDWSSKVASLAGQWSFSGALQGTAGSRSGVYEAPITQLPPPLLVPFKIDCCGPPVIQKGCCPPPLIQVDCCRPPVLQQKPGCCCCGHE
# T1: HAmyc-tagged full-length GCN5b (Toxoplasma gondii) (UniProt S8F3V2)
# T1 sequence: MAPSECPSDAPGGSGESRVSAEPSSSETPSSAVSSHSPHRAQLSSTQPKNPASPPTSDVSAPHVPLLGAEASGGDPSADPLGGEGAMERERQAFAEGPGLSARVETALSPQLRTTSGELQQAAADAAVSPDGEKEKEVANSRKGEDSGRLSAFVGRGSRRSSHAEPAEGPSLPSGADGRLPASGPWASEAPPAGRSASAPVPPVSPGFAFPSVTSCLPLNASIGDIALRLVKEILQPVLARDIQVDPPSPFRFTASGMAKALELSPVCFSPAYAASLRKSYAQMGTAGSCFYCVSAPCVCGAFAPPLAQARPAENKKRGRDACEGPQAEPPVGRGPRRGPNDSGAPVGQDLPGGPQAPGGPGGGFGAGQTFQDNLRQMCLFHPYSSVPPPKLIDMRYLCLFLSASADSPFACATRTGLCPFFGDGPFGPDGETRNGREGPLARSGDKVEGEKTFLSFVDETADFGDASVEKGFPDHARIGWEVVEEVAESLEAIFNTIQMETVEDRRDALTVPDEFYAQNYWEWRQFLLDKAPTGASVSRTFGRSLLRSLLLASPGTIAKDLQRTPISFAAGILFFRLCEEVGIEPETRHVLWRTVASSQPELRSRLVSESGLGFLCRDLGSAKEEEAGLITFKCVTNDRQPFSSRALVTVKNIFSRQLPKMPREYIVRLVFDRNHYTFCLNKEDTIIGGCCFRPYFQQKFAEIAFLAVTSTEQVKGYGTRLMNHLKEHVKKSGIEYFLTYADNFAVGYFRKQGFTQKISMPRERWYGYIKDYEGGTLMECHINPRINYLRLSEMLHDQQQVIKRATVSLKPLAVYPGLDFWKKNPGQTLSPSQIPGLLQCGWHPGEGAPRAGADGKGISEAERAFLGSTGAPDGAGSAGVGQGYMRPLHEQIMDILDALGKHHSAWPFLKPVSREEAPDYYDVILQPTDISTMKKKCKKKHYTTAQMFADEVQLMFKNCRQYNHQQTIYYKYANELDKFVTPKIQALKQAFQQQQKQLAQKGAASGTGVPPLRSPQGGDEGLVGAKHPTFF
# Columns and labels:
# Assay in all cases: affinity purification with mass spectrometry; anti-HA magnetic beads on nuclear extracts of intracellular tachyzoites, overnight at 4°C; washes with 150 mM NaCl, 1% NP-40, 0.5% sodium deoxycholate, 0.1% SDS, 50 mM Tris-HCl pH 8.0; SDS-PAGE, LC-MS/MS; parental lines as negative controls
# [1] = molecular target: T1, HAmyc-tagged full-length GCN5b (Toxoplasma gondii)
# [2] = molecular target: AP2IX-7 endogenously tagged with a C-terminal 3xHA tag (Toxoplasma gondii (endogenous locus tagged in RHΔku80))
# [3] = molecular target: AP2X-8 endogenously tagged with a C-terminal 3xHA tag (Toxoplasma gondii (endogenous locus tagged in RHΔku80))
# [4] = molecular target: T1, HAmyc-tagged full-length GCN5b (Toxoplasma gondii); remark: listed apart in the source
Molecule,binding [1],further results
ADA2-A transcriptional co-activator,binds,
"AP2IX-7 (endogenous, untagged)",binds,
"AP2X-5 (endogenous, untagged)",no binding,
"AP2X-8 (endogenous, untagged)",binds,
AP2XI-2 (from UniProt A0A125YJB8),binds,
AP2XII-4 (from UniProt A0A125YU40),binds,
AT-hook protein (TGME49_109250),binds,
CTR9,binds,
MyoF,binds,
RRM protein (TGME49_062620),binds,
RRM protein (TGME49_105850),binds,
SPT6 transcription elongation factor SPT6 (from UniProt S8ESH5),binds,
SRS44 (from UniProt S8EZL1 1-2451),binds,
SWI/SNF ATPase (TGME49_078440),binds,
SWI/SNF ATPase (TGME49_120300),binds,
TAF1/TAF250,binds,
protein transport protein Sec61 alpha subunit isoform 1,binds,
sec63 domain-containing DEAD/DEAH box helicase,binds,
splicing factor 3B subunit 3,binds,
"LEO1 Paf1/RNA polymerase II complex component LEO1 (protein, UniProt S8ETE7 1-377) MEEAAHASPEVLDGGAWPAVAEHTGEEEATSDDSPQTQRRPEAQDLEPEAVEAEDDLFGEGRDEDLFGEEDDELEVSRQKARDALSPTDPTADAQPDDAAAKGEEALAREEEAFSRFDEEGRRHSDDEEPCEDDQEIQLPIQELPPSTKDARLVVLRLPPTVSVKVRGAPANSRPHSSSSAAISADDKFTIEWGHPGGKKDGEHEAAEDKVPASNCKLVEWGDGSYSLFVGRQMFDVQVKRDPTLFFENSSSETIKTLHCRAESRFQVRLGELLNFREFFTQRNMRHGKKRRAALTTQEQIERAEQLTRKTVERRHEAARTRRRQADSARGLERGLTRHFLEADSEEELEAKQDEEEEDGSSLAKIKEQYKRQKRFK",,binding [2]: binds; binding [3]: binds; binding [4]: binds
"TAF5 transcription initiation factor TFIID subunit 5 (protein, UniProt S8FCN0 1-1094) MTEGRPVSVSFPLTASQQTRETVRPMGEPPPSDSSNSSVGDASKPLSSPSSSSASSSASLSSSSSSSLSSSSSSSSVSPVDPRGLGASAAAVVPSTSSASEKLSEIFHLLQQKYHVDSRMLDSLQEAISSFKSGPSLSSSLASSSSPRPEQTQAAAPARAAPSAEEAAVVALGTLGGRLSGQGASPLALPGSNALLSFDVYERIYNRFCIWILSLFEDCREELMDVAFAVLLHMFRKLLTVDAYQAHQLLRRFSPLHAGKHGSLLKQLEDAEPVHPLQLCQIPYFASEERNPLYISERAYFLLRTWLVDTRCLLLEVMIQAASRLLPPPSHAPHARGLVYRGLLGPSLSQSLLSPPSSHPLSSLPAGLRRHEETPAPTTQEKAVAQRAGDLAFFDAPPPFRSQPGDPEKGEKSDEREEDRSALDNSGELPPVVWGLPRQFFREETTVIGPSGERTKRVRLLGGENLRETELAEPNSLLPLPEPPKDSFLLYRRLIKQQTERRAPLSAAAGQWPSIACMTVLNSSSESACCAVSPSTCRLVAVGGEGEIRLWDLQQYQVTKARRERQRRRWLLRTQQMAQEGQPLSSFLSASKPAADDEDGEASGSEKDDAPEEKKSSSGKSLHRRKNAASAAPLALDWGEDTAGEAGVSCLVGTDGRVLSLAFGEMDDRILLSGGTDGVVRLWPSYPSAAWASTLLDEDEGEALEEKGEERQLKKAPGTGESGAQESAEGEGEQAPRSVSRGLPGSRSSVVSPLCVYRGALAAVWALDVGPYGHYFASGSSDNCARLWCTSRSFPLRLLQHPAAATDVFHVAFHPNSSLLLTAASDNCVRLFDLRSAQLARAWAPLLLPVVDGEARGRATEEPEEGDGEQRDRQERRERRGTDRKVEKHDSSPFMRRKRVYEDVKKPGAKHLRLGKKRGSPVFRASDDEEEEKRQAERRRSGRVTALAMSPNGRLAAVGDSAGGVCVFDIPSGRPLAIGSSPSMQKREERFSPLHFPPSIASLSFCHGSSFLASAAVDGTVALWDTSGGALQIPEADGTFRQKSGLFAGRPVTALSLAETYGASHVAFRSCLFSPENLLFCLGFSTLCSDEDFL",,binding [2]: binds; binding [3]: binds; binding [4]: binds
"RTF1 (protein, UniProt S8FA68 1-783) MKSAARGRQAQQRGRPSSGSRVSAEDEGKRHSSSSRETGGDAAWRRGKPGDRNGEFSPDLLYKDERDREALESMNEFEREAELARRYEELVRERQRKELLRRQDQDRKSKAGRLGDALSDIRARRARQKQQQRQTSEDEDEEEGEVSGSRKDGTEDMTESSSEDEEDEEEKKRLASPPVGAGGPGASSGVSAAADAAVGSGASAAPLSPDRGEGAGTADGVALGVGSASAGDASVENEALGRRKVSTAKSAREDEGGEPTTQQQRPVEDDRRGDLFDEDRVDSDEQRRKETARRMLQRISLELLNGVRLSTERLLHMLEHPQAEKFVRGCFVKVPQPAAAASKSPSPESPPVAWVCQIVGLRPCAPYFVPKASGTLAESAGLGAESRRGSVPCAVKLLLRVAPKASAKFDREFSLAELLNSPVTPAEYEGWKKKLQEFDSVEDLSKKLRAKLQQLKEFTFTDEDVQAILSKKQDSGAGSFLMTTGTLLKQLMSIKHEMDSLHASLSSVSTASAARRELKEKLQVLVARKAEVEAKLAKSKAAAGRARNSSTIHQVSVERRREKLSKFILNDPKRSMRKGVGREPSKASPPAATAAALTCADLLFGDGEEDAGRRKRCREGSDEVGRDRSHGGGDSRSAENRLSPFDDTRAASASPAFPSGGRDASSPRLGGESEHRSASPSSSQPRGVAGPLSSGTPQATAAWKFLLHGAPKEQRVWVKHTVQKYREGGPLNIDTANIPPPRPYASVVALLPPTPPPPSDSLLISLEEYKQQVAQLANMQLAG",,binding [4]: binds
"GCN5b (endogenous) (enzyme, UniProt S8F3V2 1-1032) MAPSECPSDAPGGSGESRVSAEPSSSETPSSAVSSHSPHRAQLSSTQPKNPASPPTSDVSAPHVPLLGAEASGGDPSADPLGGEGAMERERQAFAEGPGLSARVETALSPQLRTTSGELQQAAADAAVSPDGEKEKEVANSRKGEDSGRLSAFVGRGSRRSSHAEPAEGPSLPSGADGRLPASGPWASEAPPAGRSASAPVPPVSPGFAFPSVTSCLPLNASIGDIALRLVKEILQPVLARDIQVDPPSPFRFTASGMAKALELSPVCFSPAYAASLRKSYAQMGTAGSCFYCVSAPCVCGAFAPPLAQARPAENKKRGRDACEGPQAEPPVGRGPRRGPNDSGAPVGQDLPGGPQAPGGPGGGFGAGQTFQDNLRQMCLFHPYSSVPPPKLIDMRYLCLFLSASADSPFACATRTGLCPFFGDGPFGPDGETRNGREGPLARSGDKVEGEKTFLSFVDETADFGDASVEKGFPDHARIGWEVVEEVAESLEAIFNTIQMETVEDRRDALTVPDEFYAQNYWEWRQFLLDKAPTGASVSRTFGRSLLRSLLLASPGTIAKDLQRTPISFAAGILFFRLCEEVGIEPETRHVLWRTVASSQPELRSRLVSESGLGFLCRDLGSAKEEEAGLITFKCVTNDRQPFSSRALVTVKNIFSRQLPKMPREYIVRLVFDRNHYTFCLNKEDTIIGGCCFRPYFQQKFAEIAFLAVTSTEQVKGYGTRLMNHLKEHVKKSGIEYFLTYADNFAVGYFRKQGFTQKISMPRERWYGYIKDYEGGTLMECHINPRINYLRLSEMLHDQQQVIKRATVSLKPLAVYPGLDFWKKNPGQTLSPSQIPGLLQCGWHPGEGAPRAGADGKGISEAERAFLGSTGAPDGAGSAGVGQGYMRPLHEQIMDILDALGKHHSAWPFLKPVSREEAPDYYDVILQPTDISTMKKKCKKKHYTTAQMFADEVQLMFKNCRQYNHQQTIYYKYANELDKFVTPKIQALKQAFQQQQKQLAQKGAASGTGVPPLRSPQGGDEGLVGAKHPTFF",,binding [2]: binds; binding [3]: binds

# Source: PMC3879359
